Results of single-concentration screens

Sequences of proteins named here, by UniProt entry; tags and fusion partners are left off. Residues count along the entry.
UniProt Q4DA54, 1-478: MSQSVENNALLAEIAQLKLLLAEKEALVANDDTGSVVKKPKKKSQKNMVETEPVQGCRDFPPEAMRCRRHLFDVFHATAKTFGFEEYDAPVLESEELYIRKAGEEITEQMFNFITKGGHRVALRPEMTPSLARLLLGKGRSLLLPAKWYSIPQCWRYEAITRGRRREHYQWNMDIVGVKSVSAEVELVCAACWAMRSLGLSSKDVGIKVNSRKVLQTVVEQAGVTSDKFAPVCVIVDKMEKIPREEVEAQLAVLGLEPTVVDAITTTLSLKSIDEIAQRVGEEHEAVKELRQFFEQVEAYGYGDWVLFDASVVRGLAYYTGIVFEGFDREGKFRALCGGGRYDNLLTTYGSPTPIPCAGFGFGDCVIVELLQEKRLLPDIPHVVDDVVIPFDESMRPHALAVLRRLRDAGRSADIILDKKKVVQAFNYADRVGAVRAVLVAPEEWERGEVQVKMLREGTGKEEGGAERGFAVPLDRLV
UniProt P9WNZ1, whole entry: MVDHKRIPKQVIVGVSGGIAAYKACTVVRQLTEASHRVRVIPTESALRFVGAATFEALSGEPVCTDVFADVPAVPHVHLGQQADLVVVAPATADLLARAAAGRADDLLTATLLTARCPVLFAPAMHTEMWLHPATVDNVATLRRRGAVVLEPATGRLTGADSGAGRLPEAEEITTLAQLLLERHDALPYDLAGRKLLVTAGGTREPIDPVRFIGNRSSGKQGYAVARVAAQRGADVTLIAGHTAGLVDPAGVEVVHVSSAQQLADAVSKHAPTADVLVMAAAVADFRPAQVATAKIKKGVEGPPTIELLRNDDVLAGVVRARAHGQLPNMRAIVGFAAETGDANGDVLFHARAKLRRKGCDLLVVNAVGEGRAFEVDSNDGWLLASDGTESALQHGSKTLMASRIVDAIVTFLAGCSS

Results are given as percent effect. How 0% and 100% were set is not recorded. Most values in the screen are low, and negative values occur. Compounds were drawn at random from those tested, without regard to their results. Two or more numbers in one place are separate tests of the same structure; such repeats can differ widely.

A: 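Assay of Toxoplasma gondii numbers, read through their beta-galactosidase reporter with a colour substrate. Compounds at 10 µM. The record gives no direction; the compounds picked for IC50 retests had high values, so higher reads as fewer parasites. Of about 67,000 compounds tested this way, about 260 (0.38%) reached 50% or more in at least one test.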
B: 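Histidine-tRNA ligase, Trypanosoma cruzi CL Brener (UniProt Q4DA54). Enzyme assay of histidyl-tRNA synthetase; the read-out is not stated. Concentration: 30 µM. Higher reads as stronger inhibition (inferred: compounds with an IC50 in retests scored well above the rest). Of about 69,000 compounds tested this way, about 31 (0.045%) reached 50% or more in at least one test.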
C: 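Coenzyme A biosynthesis protein CoaBC, Mycobacterium tuberculosis (UniProt P9WNZ1). Enzyme assay of CoaBC with a phosphate dye (Biomol Green) read at 650 nm. Compounds at 30 µM. Higher reads as stronger inhibition, judged from the few compounds that gave an IC50. Most strong results did not repeat in a second test. Size under these conditions: about 67,000 compounds, about 40 of them at 50% or above in at least one test.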
D: 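Cell assay of Leishmania donovani living inside macrophages; the read-out is not stated. Concentration: 30 µM. Direction is inferred from retests: higher values go with stronger inhibition. Size under these conditions: about 69,000 compounds, about 1,000 of them at 50% or above in at least one test.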

With COc1ccc(CNC(C)c2cccc(Br)c2)c(OC)c1OC.Cl (stereo not given) the screen gave A: 5.465%; D: 35.1%. CC(C)(CCS(C)(=O)=O)CNC(=O)NC1CCCCC1(C)C (stereo not given) gave A: -24.56%; B: 1.031%; C: -4.245%; D: -8.552%. Cc1cnn(CC2CCCN2CC(=O)Nc2cc(C)nn2C)c1 (stereo not given) read A: 0.4449%; B: 1.141%; C: -2.108%; D: -6.838%. For Cc1ccc(CN2CCCC3(CCCN3S(C)(=O)=O)C2)s1 (stereo not given) the result was B: 7.216%; C: 4.187%. CC(C)c1n[nH]c(C2CN(CCCS(C)(=O)=O)CCO2)n1 (stereo not given) read A: 15.89%; B: 1.127%; C: 7.761%; D: 24.03%.

Result for Cc1ccc(N2CCN(C(=O)COc3ncccn3)CC2)nn1 was A: -10.72%; B: 0%; C: 3.571%; D: 8.847%. CCCc1nc(NCC(=O)N2CCOCC2)c2c(n1)c(C)nn2CC gave A: 3.704%; B: 0.8696%; C: -4.619%; D: -34.66%. For CCOc1ccc(C(=O)NS(=O)(=O)c2cncc(Br)c2)cc1OC the result was A: 0.8078%; B: -1.667%; C: 13.01%; D: 20.52%. Result for Cc1ccc(OCCCSC2=NCCN2)cc1 was B: 5.759%; C: -12.96%. O=C(C(CNCc1ccsc1)c1ccccc1)N1CCOCC1 (stereo not given) gave A: 15.8%; B: 2.51%; C: -7.727%; D: 37.35%.

Cl.NCC1CCCCN1C(=O)Cc1cccc(Br)c1 (stereo not given) gave A: -2.086%; D: 0.6239%. Result for [H][C@]12CCN(C(=O)COC)[C@@]1([H])CC[C@@H](COCc1csc(C)n1)O2 was A: 12.24%; D: 25.81%. Result for O=C(CCN1CCCCC1)N1CCC(Cc2ccc(CO)cc2)C1 (stereo not given) was A: -4.945%; B: 5.291%; C: -3.748%; D: 14.86%. For O=C(O)C(F)(F)F.O=C(O)C(F)(F)F.O=C(O)C(F)(F)F.[H][C@@]12COC[C@]1([H])[C@H](N(C)C)CN2Cc1cnn(C)c1 the result was A: 8.987%; D: 13.37%. Result for Cl.Cn1cc(C(=O)NCc2cncc3c2CCN(S(C)(=O)=O)C3)cn1 was A: -1.908%; D: 10.86%.

COC(=O)c1ccc(C)c(N2CCNC2=O)c1 gave A: -0.1215%; B: 8.333%; C: -2.762%; D: 9.079%. Result for CC(C)(C)C(=O)N1CCCC1c1cc(CO)[nH]n1 (stereo not given) was A: -16.95%; B: -2.825%; C: 13.8%; D: -1.505%. CC(CNC(=O)c1nnn(-c2ccccc2)c1C(F)(F)F)N(C)C (stereo not given) gave A: -0.9702%; B: 5.063%; C: 3.846%; D: 14.13%. CC(=O)N1CCSCC1c1ccc(C)o1 (stereo not given) gave A: -4.249%; B: 4.663%; C: 7.071%; D: -12.15%. CC(=O)N[C@H](C)c1c(-c2ccc(Cl)cc2)noc1C(=O)O read A: 18.1%; B: 2.97%; C: 4.289%; D: 16.63%.

For COCCN(CC(F)F)c1cc(COC)nc2ncnn12 the result was A: -11.93%; B: 12.73%; C: -0.4866%; D: 22.8%. For CCS(=O)(=O)N1Cc2nccn2CC(CN2CCCC2)C1 (stereo not given) the result was A: 0.7529%; B: 8.696%; C: -22.43%; D: -17.84%. CO[C@@H]1CCN(Cc2nccs2)C[C@@H]1Cc1ccccc1 read B: 7.882%; C: 2.538%. c1ncn(CCNC2CCCN(Cc3noc(C4CC4)n3)C2)n1 (stereo not given) gave A: -10.29%; B: 2.128%; C: 5.423%; D: 3.348%. Result for CCN(CC)S(=O)(=O)N1CCCN(CC(=O)NC(C)C)CC1 was A: 10.53%; B: 6.349%; C: -7.692%; D: -8.601%.

Cn1ccc(C(=O)NCc2ccc(Cn3ccnc3)cc2)cc1=O gave A: -9.45%; B: -2.041%; C: 7.559%; D: 16.84%. With Cc1c[nH]nc1C1CCCCN1C(=O)CNS(C)(=O)=O (stereo not given) the screen gave A: -4.625%; B: 0%; C: 0.4854%; D: 17.1% & -0.1571%. For [H][C@]12CC[C@@]3(N=C(c4ccccc4)NC3=O)[C@@]1([H])CN(C(=O)NCC(C)C)C2 the result was A: 18.48%; D: 5.736%. COCC(=O)N1CCCC(c2noc3nc(C)cc(C(F)(F)F)c23)C1 (stereo not given) read A: -26.32%; B: 0.7491%; C: -1.859%; D: 4.84%. With Cc1c(Cl)ccc2ccc(NC(CO)CO)nc12 the screen gave A: -2.761%; B: 10.05%; C: 3.666%; D: 6.475%.

With Cc1ccc(N2CCCN(C(=O)c3cc(CC(C)C)n[nH]3)CC2)nn1 the screen gave A: -5.498%; B: 8.861%; C: 0%; D: 25.45%. CC1CN(C)CCN1C(=O)COc1cccc(Oc2ccccn2)c1 (stereo not given) gave B: 1.98%; C: -2.309%; D: -42.78%. Result for CCn1cc2c(n1)CN(Cc1nccs1)CC2COCC1CC1.O=C(O)C(F)(F)F (stereo not given) was A: -3.605%; D: -13.43%.

Some entries from above, unchanged:

With Cc1ccc(N2CCN(C(=O)COc3ncccn3)CC2)nn1 the screen gave A: -10.72%; B: 0%; C: 3.571%; D: 8.847%.
With CO[C@@H]1CCN(Cc2nccs2)C[C@@H]1Cc1ccccc1 the screen gave B: 7.882%; C: 2.538%.
With Cc1ccc(OCCCSC2=NCCN2)cc1 the screen gave B: 5.759%; C: -12.96%.

From ChEMBL document CHEMBL3988442, “University of Dundee, Small-Polar-MMV Screening Library” (2021).